{"source": "PubChem BioAssay AID1159578, Peter MacCallum Cancer Centre | 2015", "purpose": "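Genome-wide hunt for genes controlling movement of lymphatic endothelial cells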 (primary screen)", "cells": "human lymphatic endothelial cells", "reagent": "siRNA pool against human genes, 40 nM", "time to read-out": "48 h after transfection", "measurement": "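Cells stained with dye and imaged after a scratch; covered wound area and nuclei counted, duplicates averaged, migration set against mock wells and turned into a robust z-score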", "direction": "migration robust z-score: higher = faster migration into the scratch; nuclei per well: higher = more cells in the well", "hit rule": "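Pools averaging fewer than 3300 nuclei are never called; remaining pools count as changed when migration robust z lies outside -2 to 2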", "meaning of the calls": "active = migration changed; inactive = no migration change, or too few cells", "note": "This is a random part of about 18,000 deposited reagents. In the full data, about 1,030 (5.7%) got an active call. 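Inactive calls also include pools with fewer than 3300 nuclei, whose migration was not assessed.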 Raw values vary from plate to plate and are shown uncorrected. A number with no mark means an inactive call. Not all columns of the deposit are shown. Reagent sequences are not shown."}
{"Target gene":"CYBRD1 (GeneID 79901)","PubChem SID":"SID255360555","migration robust z-score":-0.83,"nuclei per well, duplicate mean":5474}
{"Target gene":"LTK (GeneID 4058)","PubChem SID":"SID255350813","migration robust z-score":0.78,"nuclei per well, duplicate mean":5563}
{"Target gene":"ZNF256 (GeneID 10172)","PubChem SID":"SID255354869","migration robust z-score":0.66,"nuclei per well, duplicate mean":6135}
{"Target gene":"ZNF833P (GeneID 401898)","PubChem SID":"SID255365806","migration robust z-score":0.56,"nuclei per well, duplicate mean":5174}

Reformatted: results already given
{"Target gene": "ZNF256 (GeneID 10172)", "PubChem SID": "SID255354869", "migration robust z-score": 0.66, "nuclei per well, duplicate mean": 6135}
{"Target gene": "ZNF833P (GeneID 401898)", "PubChem SID": "SID255365806", "migration robust z-score": 0.56, "nuclei per well, duplicate mean": 5174}

Continued.
{"Target gene":"VAC14 (GeneID 55697)","PubChem SID":"SID255358785","migration robust z-score":0.33,"nuclei per well, duplicate mean":4990}
{"Target gene":"KCTD3 (GeneID 51133)","PubChem SID":"SID255357506","migration robust z-score":0.16,"nuclei per well, duplicate mean":5170}
{"Target gene":"MFAP4 (GeneID 4239)","PubChem SID":"SID255350946","migration robust z-score":-0.67,"nuclei per well, duplicate mean":5849}
{"Target gene":"SEC62 (GeneID 7095)","PubChem SID":"SID255352887","migration robust z-score":-0.72,"nuclei per well, duplicate mean":5066}
{"Target gene":"SLC12A6 (GeneID 9990)","PubChem SID":"SID255354723","migration robust z-score":0.88,"nuclei per well, duplicate mean":5346}
{"Target gene":"AHDC1 (GeneID 27245)","PubChem SID":"SID255356991","migration robust z-score":-0.18,"nuclei per well, duplicate mean":6360}
{"Target gene":"PDIA6 (GeneID 10130)","PubChem SID":"SID255354832","migration robust z-score":-0.44,"nuclei per well, duplicate mean":6436}
{"Target gene":"HOXD1 (GeneID 3231)","PubChem SID":"SID255350287","migration robust z-score":-0.92,"nuclei per well, duplicate mean":5904}
